Laboratory results taken from PubChem BioAssay AID493014 (National Center for Advancing Translational Sciences (NCATS), 2011).
Some of the results follow. Shown are side measurements of this screen, not its main read-out; they come without a call. Most of these compounds were active or inconclusive in the main read-out, so they are no random draw. Words in brackets tell the shape of the fitted curve; partial curves, single points and poor fits give uncertain potencies.

Experiment: qHTS Assay to Find Inhibitors of Chronic Active B-Cell Receptor Signaling
Conditions: ABC-DLBCL IkBa-CBG/CBR reporter, luminescence ratio (green luciferase fused to IkBa over red control in TMD8 lymphoma cells), 4 h
Summary of the method: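 Cell line TMD8 (human ABC DLBCL), stably expressing tet-inducible CBG68-IkBa fusion and CBR; IMDM/0.5% FBS; cpd up to 46 uM; dox induction, 4 h, 37C/5% CO2; dual luminescence; green/red ratio; MG132 control.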

[1] = measured here: CBR red luminescence, cell number
[2] = measured here: IkBa-CBG green luminescence

Row | SMILES | AC50 [1] | AC50 [2]
1 | O=C(NCCc1ccccc1)C(=O)NCC1CCCO1 (centres undefined) | 6.51 µM [rising, single point] | –
2 | CN(C)S(=O)(=O)c1ccc2nc(NC(=O)c3cccs3)sc2c1 | 29.1 µM [falling, single point] | –
3 | FC(F)(F)c1cc(-c2ccccc2)nc(NCc2cccnc2)n1 | 1.58 µM [falling, partial curve, poor fit] | –
4 | O=C(COC(=O)c1cccc(C(=O)OCC(=O)c2ccc(Br)cc2)n1)c1ccc(Br)cc1 | 29.1 µM [rising, single point] | –
5 | O=C1Nc2ccc(Cl)cc2[C@@](C#CC2CC2)(C(F)(F)F)O1 | 1.41 µM [rising, partial curve, poor fit] | 5.62 µM [falling, partial curve, poor fit]
6 | NC(=O)COC(=O)[C@@H]1CC(O)CN1S(=O)(=O)c1ccc2c(c1)OCCO2 (some centres undefined) | 0.794 µM [rising, single point] | –
7 | Cc1cccc([C@@H]2[C@@H]3C(=O)N(Cc4ccccc4)C(=O)[C@@H]3[C@]3(CC(C)C)C(=O)N(c4cccc(F)c4)C(=O)N23)c1 | 6.51 µM [falling, partial curve] | –
8 | Cc1cccc2sc(NC(=O)C3c4ccccc4Oc4ccccc43)nc12 | 7.08 µM [falling, partial curve, poor fit] | –
9 | COCC(C)n1c(SCC(=O)NC(=O)NCc2ccccc2)nc2ccccc2c1=O (centres undefined) | 3.26 µM [rising, single point] | –
10 | O=C(N/N=C/c1sc(=O)n(-c2ccccc2)c1Cl)c1ccccc1 | 29.1 µM [falling, single point] | –
11 | CC1CCN(C2=C(NS(=O)(=O)c3ccccc3)C(=O)c3ccccc3C2=O)CC1 | 0.631 µM [rising, full curve, poor fit] | –
12 | CCc1ccc(/C=N\NC(=O)c2ccc(Br)o2)s1 | 25.9 µM [falling, partial curve, poor fit] | –
13 | O=C(N/N=C/c1cccc(C(F)(F)F)c1)c1ccccc1O | 4.47 µM [falling, partial curve, poor fit] | –
14 | CCN(C[C@H]1N[C@@](CC)(C(=O)OC)[C@H]2C(=O)N(Cc3ccccc3)C(=O)[C@@H]12)S(=O)(=O)c1ccc(C(F)(F)F)cc1 | 6.51 µM [falling, single point] | –
15 | COCCCNC(=S)N/N=C/c1cccc(OC)c1O | 0.398 µM [falling, full curve, poor fit] | –
16 | CN(C)/C=C/C(=O)c1ccc(Oc2ccccc2)cc1 | 6.31 µM [falling, single point] | –
17 | O=C(Nc1ccc(Br)cc1)c1cccc(N2C(=O)C3C4CCC(C4)C3C2=O)c1 (centres undefined) | 20.6 µM [falling, partial curve] | –
18 | Fc1ccc(-c2noc(-c3ccc4c(c3)CCO4)n2)cc1 | 28.2 µM [rising, single point] | –
19 | CCOc1ccc(NC(=O)c2cccc3c2C(=O)N(CCOC)C3)cc1 | 2.91 µM [rising, full curve, poor fit] | –
20 | CC1CCN(CCCCOc2ccccc2F)CC1 | 20 µM [rising, single point] | –
21 | O=C1OC(Nc2nc(-c3ccc(F)cc3)cs2)c2ccccc21 (centres undefined) | 4.47 µM [falling, partial curve] | –

Row | SMILES | AC50 [1] | AC50 [2]
22 | CC1=NN(c2ccccc2)C(=O)C1C(=O)C(=O)Nc1ccc(F)cc1 (centres undefined) | 0.398 µM [falling, full curve, poor fit] | –
23 | COc1ccc(S(=O)(=O)N2CCCCCC2)cc1C(=O)N(C)Cc1c(F)cccc1Cl | 14.6 µM [rising, partial curve, poor fit] | –
24 | Cn1c(=O)c2c(nc(Oc3ccccc3Cl)n2C)n(C)c1=O | 8.91 µM [falling, single point] | –
25 | Nc1sc(-c2ccccc2)cc1-c1n[nH]c(=S)n1C1CCCCC1 | 35.5 µM [rising, single point] | –
26 | O=C(Cc1c[nH]c2ccccc12)NCC(=O)Nc1ccc(F)c(F)c1F | 23.1 µM [falling, single point] | –
27 | Cc1oc(C)c2c(=O)ccc3c(c12)OC(N)=C(C#N)C3c1ccc(F)cc1 (centres undefined) | 35.5 µM [falling, single point] | –
28 | COc1ccc(OC[C@@H](O)CNC(=O)c2cccc3c2C(=O)c2ccc(Cl)cc2S3(=O)=O)cc1 | 0.517 µM [falling, full curve, poor fit] | –
29 | c1ccc(-c2ncc3c(ccc4ccccc43)n2)cc1 | 5.17 µM [rising, partial curve, poor fit] | –
30 | N#Cc1cccc(CS(=O)(=O)c2ccc(Cl)cc2)c1 | 12.6 µM [rising, single point] | –
31 | COc1cccc(NC(=O)CSc2nc3c(oc4ccccc43)c(=O)[nH]2)c1 | 10.3 µM [falling, partial curve] | –
32 | COc1ccc(NC(=O)CSc2nc3sc4c(c3c(=O)n2-c2ccc(OC)cc2)CCN(C)C4)cc1 | 1.26 µM [rising, partial curve, poor fit] | –
33 | CCC(=Cc1ccc(CC)cn1)CC | 35.5 µM [rising, partial curve, poor fit] | –
34 | O=C1c2ccccc2C(Nc2ccc(Cl)cn2)N1Cc1ccccc1 (centres undefined) | 0.517 µM [rising, full curve, poor fit] | –
35 | CCCCc1ccc(NC(=S)N2CCCC2)cc1 | 2.51 µM [rising, full curve, poor fit] | –
36 | COc1cccc(/C=N/NC(N)=S)c1OS(=O)(=O)c1ccccc1 | – | 18.4 µM [falling, partial curve, poor fit]
37 | Cc1ccc(C(=O)C[n+]2cc(-c3ccc(C)cc3)n3c2CCCCC3)cc1 | 11.2 µM [falling, partial curve, poor fit] | –
38 | O=C(NC(=S)NNC(=O)c1ccccc1O)c1cccnc1 | 7.08 µM [falling, partial curve] | –
39 | COC(=O)CCC(=O)c1oc2ccccc2c1N | 3.98 µM [rising, partial curve, poor fit] | –
40 | COc1cccc2c(=O)c3cccc(N)c3[nH]c12 | 29.1 µM [falling, partial curve, poor fit] | –
41 | CCC(=O)N(CCC(Cc1ccccc1)c1ccc2c(c1)OCO2)Cc1ccccc1F (centres undefined) | – | 14.1 µM [rising, partial curve, poor fit]
42 | CCC(Sc1nc2c(cnn2-c2ccccc2)c(=O)[nH]1)C(=O)OC (centres undefined) | 0.731 µM [rising, partial curve, poor fit] | –

Row | SMILES | AC50 [1] | AC50 [2]
43 | CCN(CC)C(=O)CSc1nc2sc(C)c(C)c2c(=O)[nH]1 | 29.1 µM [rising, single point] | –
44 | CSc1nc(C)cc(OCCNS(=O)(=O)c2cc(C)ccc2C)n1 | 0.731 µM [rising, full curve] | –
45 | Oc1ccc(/C=N\Nc2cc(N3CCOCC3)nc(N3CCOCC3)n2)c(O)c1 | 13 µM [falling, partial curve] | –
46 | CCN1CCc2c(sc(NC(=S)NC(=O)c3ccc(Cl)cc3)c2C(N)=O)C1 | 11.2 µM [rising, partial curve, poor fit] | –
47 | C[C@H](N)C(=O)OCc1ccc([N+](=O)[O-])cc1 | 3.98 µM [rising, partial curve, poor fit] | –
48 | Cc1ccc2nc3c(c(Nc4ccc(O)cc4)c2c1)CCC3 | 6.31 µM [falling, full curve, poor fit] | –
49 | O=C(CNc1ccc(Br)cc1)NC(=O)NC1CCCCC1 | 4.61 µM [falling, partial curve] | –
50 | Cc1cccc2nc(CNc3ccc(F)cc3)cn12 | 2.06 µM [rising, partial curve, poor fit] | –
51 | O=C(Nc1ccccc1)c1csc(-c2ccccc2)n1 | 35.5 µM [falling, single point] | –
52 | CC(C)CCn1c(NCCc2ccccc2)nc2c1c(=O)n(C)c(=O)n2C | 11.2 µM [falling, partial curve, poor fit] | –
53 | C=CC[C@@H](CC(=O)N(CCO)Cc1ccccc1)C(=O)NC[C@H](OC(=O)[C@@H](CC=C)Cc1ccc(F)cc1)c1ccccc1 | 29.1 µM [falling, single point] | –
54 | COC(=O)c1ccc(CN2CCc3ccccc32)cc1 | 2.82 µM [falling, partial curve, poor fit] | –
55 | CC(=O)COc1ccc2c(C)c(-c3ccccc3)c(=O)oc2c1 | 5.01 µM [rising, partial curve, poor fit] | –
56 | Cc1cc(C)c2ccc(Cl)cc2n1 | 0.355 µM [rising, full curve, poor fit] | –
57 | COc1ccc(Cl)cc1C(=O)Nc1ccc2c(c1)OCO2 | 2.82 µM [rising, partial curve, poor fit] | –
58 | Cc1ccsc1/C=C1\SC(N)=NC1=O | 7.94 µM [falling, partial curve, poor fit] | –
59 | COc1ccc(C(=O)NNC(=S)NC(=O)c2cccs2)cc1 | 35.5 µM [falling, partial curve, poor fit] | –
60 | COc1ccc(/C=N/NC(=S)Nc2ccccc2)cc1COc1ccc(F)cc1F | 7.31 µM [rising, partial curve] | –
61 | COc1cc(NS(=O)(=O)c2ccc3ccccc3c2)c2ncccc2c1 | 0.2 µM [rising, full curve, poor fit] | –
62 | CCOC(=O)C1=C(C)N(C)C(=S)NC1c1ccc(Cl)cc1 (centres undefined) | 0.291 µM [rising, partial curve, poor fit] | –
63 | COc1cccc(C2CC(c3cccs3)=NN2C(=O)CSC2=NCCS2)c1OC (centres undefined) | 22.4 µM [falling, single point] | –

Some of the entries so far, tab-delimited.
Row	SMILES	AC50 [1]	AC50 [2]
46	CCN1CCc2c(sc(NC(=S)NC(=O)c3ccc(Cl)cc3)c2C(N)=O)C1	11.2 µM [rising, partial curve, poor fit]	–
47	C[C@H](N)C(=O)OCc1ccc([N+](=O)[O-])cc1	3.98 µM [rising, partial curve, poor fit]	–
